Measured values: patent US20220218682A1, “COMPOSITIONS AND METHODS FOR TREATING CANCER” (THE UNITED STATES GOVERNMENT AS REPRESENTED BY THE …, priority 2019, published 2022)
For at least one compound, name, drawing or mass did not settle the structure.

Test system: TNF
Test: TNF protein in medium of brain cancer cells (GBM9), FIG. 1
Assay type: cell-based
Conditions: GBM9 cells treated with afatinib

CN(C)C/C=C/C(=O)Nc1cc2c(Nc3ccc(F)c(Cl)c3)ncnc2cc1O[C@H]1CCOC1 [afatinib] was tested, and the TNF secretion was “leads to increased TNF secretion”.
